Measurements: patent publication US20250257126A1
No constants are given. Whether binding was seen depends on the method and setting. Some binding calls cover weakened binding; strength is not graded here. Values belong to the binder of their own block, whether it stands above or below them.

Experiments:
α-LGR5 clone 2 [1] = experiment: blocking: Fl-α-LGR5 pre-incubated with the peptide, then flow cytometry on LoVo cells (blocked ligand: endogenous LGR5)
α-LGR5 clone 2 [2] = experiment: blocking: fluorescent clone 2 pre-incubated with the peptide, then immunofluorescence on HEK293T cells (blocked ligand: hLGR5-eGFP)
α-LGR5 clone 2 [3] = experiment: blocking: Fl-α-LGR5 pre-incubated with the peptide, then flow cytometry on HEK293T cells (blocked ligand: hLGR5-eGFP)
[4] = biological target: T1, Fragment 1A peptide (human); experiment: peptide blocking of internalisation by LoVo cells
T1 sequence (peptide): GSSPRSGVLLRGCPTH

[5] = biological target: T1, Fragment 1A peptide (human); experiment: peptide blocking of immunofluorescence staining
[6] = biological target: T1, Fragment 1A peptide (human); experiment: peptide blocking of internalisation by NALM6 cells
[7] = biological target: T1, Fragment 1A peptide (human); experiment: blocking of flow cytometry staining, 10:1
[8] = biological target: T1, Fragment 1A peptide (human); experiment: peptide blocking of flow cytometry staining of LoVo cells
[9] = biological target: T1, Fragment 1A peptide (human); experiment: peptide blocking, flow cytometry of HEK293T cells expressing LGR5-eGFP

binding (α-LGR5 clone 2 [1]): binds
binding (α-LGR5 clone 2 [2]): binds
binding (α-LGR5 clone 2 [3]): binds
B1: Fragment 1A peptide (peptide)
peptide: GSSPRSGVLLRGCPTH

binding [4]: binds
binding [5]: binds
binding [6]: binds
binding [7]: binds
binding [8]: binds
binding [9]: binds
B2: α-LGR5 clone 2 (antibody, mouse IgG2b, kappa, V domains shown)
VH: QVQLQQPGAELVKPGASVKLSCKASGYTFTNYWMQWVKQRPGQGLEWIGEIDPSDSYTNYNQKFKGKATLTVDTSSSTAYMQLSSLTSEDSAVYYCARSLSGYVDYWGQGTTLTVSS
VL: DIQMTQTTSSLSASLGDRVTISCRASQDISNRLNWYQQKPDGTVKLLISYRSRLHSGVPSRFSGSGSGTDYSLTISNLEQEDIATYFCQQGNSLPPTFGGGTKLEVRR
